Experimental data from the supplement of paper PMC12823440, “Inhibitors supercharge kinase turnover through native proteolytic circuits” (Nature, 2025).
Structures can show the parent of a compound that is named as a salt. The list shows a part of the results. The calls rarely recur for the same compound in another form.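 Kinases, fused to nanoluciferase, were expressed in K562 cells; luminescence was measured every 4 h from 2 to 18 h as percent of control (DMSO = 100%, positive control = 0%). A time point is decreased if signal falls significantly (2 sigma). Hits were called by the authors by a rule that is not shown; the count of time points alone does not decide it.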

Sequences of proteins named here, by UniProt entry; tags and fusion partners are left off. A change or cut given only in a name is not applied to a line headed by its entry.
UniProt O15530: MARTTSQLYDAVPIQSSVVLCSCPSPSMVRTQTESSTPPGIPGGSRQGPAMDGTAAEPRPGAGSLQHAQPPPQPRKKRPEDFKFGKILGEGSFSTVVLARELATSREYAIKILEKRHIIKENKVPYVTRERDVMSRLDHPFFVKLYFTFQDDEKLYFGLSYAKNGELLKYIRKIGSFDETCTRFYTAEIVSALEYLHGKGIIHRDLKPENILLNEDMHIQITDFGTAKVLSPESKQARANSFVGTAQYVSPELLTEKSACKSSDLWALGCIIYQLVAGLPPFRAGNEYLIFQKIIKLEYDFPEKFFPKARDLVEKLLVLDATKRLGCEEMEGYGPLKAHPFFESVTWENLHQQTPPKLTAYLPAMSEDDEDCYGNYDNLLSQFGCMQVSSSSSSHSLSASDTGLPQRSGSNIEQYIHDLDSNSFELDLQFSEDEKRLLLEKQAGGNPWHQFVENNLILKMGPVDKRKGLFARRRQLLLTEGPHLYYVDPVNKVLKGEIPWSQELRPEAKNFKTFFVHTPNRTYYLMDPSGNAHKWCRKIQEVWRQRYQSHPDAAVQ
UniProt P42356, whole entry, looked up: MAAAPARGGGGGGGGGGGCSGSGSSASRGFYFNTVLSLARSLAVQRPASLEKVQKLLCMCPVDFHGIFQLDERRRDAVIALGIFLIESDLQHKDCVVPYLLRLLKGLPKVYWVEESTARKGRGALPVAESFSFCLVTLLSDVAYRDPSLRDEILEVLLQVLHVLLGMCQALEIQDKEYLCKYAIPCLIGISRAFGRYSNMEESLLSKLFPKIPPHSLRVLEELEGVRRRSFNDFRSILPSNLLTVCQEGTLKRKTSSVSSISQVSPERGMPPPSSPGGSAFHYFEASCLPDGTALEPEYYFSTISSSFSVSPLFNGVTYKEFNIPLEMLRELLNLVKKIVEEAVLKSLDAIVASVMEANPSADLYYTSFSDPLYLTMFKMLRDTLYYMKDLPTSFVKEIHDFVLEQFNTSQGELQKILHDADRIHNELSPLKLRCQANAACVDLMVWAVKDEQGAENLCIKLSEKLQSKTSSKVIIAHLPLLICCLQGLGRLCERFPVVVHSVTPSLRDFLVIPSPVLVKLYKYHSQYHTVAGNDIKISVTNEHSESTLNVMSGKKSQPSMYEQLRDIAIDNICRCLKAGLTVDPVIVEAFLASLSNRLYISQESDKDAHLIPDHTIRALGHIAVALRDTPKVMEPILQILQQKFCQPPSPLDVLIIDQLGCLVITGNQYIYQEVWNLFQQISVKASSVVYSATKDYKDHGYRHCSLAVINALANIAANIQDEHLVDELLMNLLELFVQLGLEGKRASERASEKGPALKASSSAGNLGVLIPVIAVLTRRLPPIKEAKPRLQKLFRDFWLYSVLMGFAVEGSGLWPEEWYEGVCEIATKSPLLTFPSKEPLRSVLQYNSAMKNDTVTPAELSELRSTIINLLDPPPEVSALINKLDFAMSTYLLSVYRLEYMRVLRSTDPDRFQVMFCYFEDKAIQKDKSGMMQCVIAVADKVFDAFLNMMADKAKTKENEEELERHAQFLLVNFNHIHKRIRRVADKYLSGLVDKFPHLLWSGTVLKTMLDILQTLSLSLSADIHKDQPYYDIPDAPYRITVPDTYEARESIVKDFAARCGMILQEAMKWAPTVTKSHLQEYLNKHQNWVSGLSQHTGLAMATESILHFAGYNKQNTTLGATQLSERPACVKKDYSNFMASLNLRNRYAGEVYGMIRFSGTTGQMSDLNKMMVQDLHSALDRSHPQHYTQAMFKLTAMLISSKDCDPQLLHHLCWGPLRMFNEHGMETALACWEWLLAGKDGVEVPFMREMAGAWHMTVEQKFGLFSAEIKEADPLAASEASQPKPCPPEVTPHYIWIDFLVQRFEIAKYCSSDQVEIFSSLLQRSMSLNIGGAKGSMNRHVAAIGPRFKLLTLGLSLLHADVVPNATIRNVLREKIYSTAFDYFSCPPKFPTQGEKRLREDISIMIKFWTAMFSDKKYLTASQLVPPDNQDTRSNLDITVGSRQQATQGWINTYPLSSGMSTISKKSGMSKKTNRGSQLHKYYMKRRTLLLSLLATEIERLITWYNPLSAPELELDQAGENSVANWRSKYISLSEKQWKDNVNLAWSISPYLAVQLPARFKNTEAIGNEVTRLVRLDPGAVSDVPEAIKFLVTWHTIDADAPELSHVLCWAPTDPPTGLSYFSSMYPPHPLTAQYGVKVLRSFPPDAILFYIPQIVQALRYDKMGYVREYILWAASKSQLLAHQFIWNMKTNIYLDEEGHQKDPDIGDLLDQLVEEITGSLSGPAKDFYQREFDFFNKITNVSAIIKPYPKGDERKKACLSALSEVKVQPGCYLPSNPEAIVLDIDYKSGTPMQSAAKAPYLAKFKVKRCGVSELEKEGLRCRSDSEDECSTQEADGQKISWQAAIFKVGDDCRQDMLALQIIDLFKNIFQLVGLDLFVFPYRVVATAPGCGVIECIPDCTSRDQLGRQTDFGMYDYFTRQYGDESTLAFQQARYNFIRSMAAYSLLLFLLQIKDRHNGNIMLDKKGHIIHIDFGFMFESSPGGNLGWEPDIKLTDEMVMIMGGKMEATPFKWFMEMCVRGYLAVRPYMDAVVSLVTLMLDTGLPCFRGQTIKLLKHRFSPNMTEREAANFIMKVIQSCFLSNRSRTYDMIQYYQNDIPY
UniProt Q9UBF8: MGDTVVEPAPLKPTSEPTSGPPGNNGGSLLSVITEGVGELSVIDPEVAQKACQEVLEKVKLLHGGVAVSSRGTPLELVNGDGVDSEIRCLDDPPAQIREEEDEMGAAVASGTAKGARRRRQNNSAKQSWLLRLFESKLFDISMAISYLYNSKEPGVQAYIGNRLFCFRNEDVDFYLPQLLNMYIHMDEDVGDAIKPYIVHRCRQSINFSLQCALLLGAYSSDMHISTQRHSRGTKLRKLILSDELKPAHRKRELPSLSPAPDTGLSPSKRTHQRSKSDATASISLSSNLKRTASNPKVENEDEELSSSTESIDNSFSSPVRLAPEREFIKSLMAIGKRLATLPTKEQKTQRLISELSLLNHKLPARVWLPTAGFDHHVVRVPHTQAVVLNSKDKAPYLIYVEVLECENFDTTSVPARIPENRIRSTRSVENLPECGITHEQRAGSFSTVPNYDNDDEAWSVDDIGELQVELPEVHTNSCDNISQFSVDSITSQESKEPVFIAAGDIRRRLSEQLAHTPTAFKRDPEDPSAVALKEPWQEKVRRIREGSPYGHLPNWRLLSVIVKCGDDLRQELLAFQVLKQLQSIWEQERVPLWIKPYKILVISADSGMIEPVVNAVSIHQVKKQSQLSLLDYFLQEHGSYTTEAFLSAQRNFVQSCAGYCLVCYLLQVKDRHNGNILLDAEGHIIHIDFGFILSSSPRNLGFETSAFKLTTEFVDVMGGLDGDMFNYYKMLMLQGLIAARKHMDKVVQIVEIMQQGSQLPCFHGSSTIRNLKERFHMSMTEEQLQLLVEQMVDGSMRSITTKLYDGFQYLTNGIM
UniProt P53350, whole entry: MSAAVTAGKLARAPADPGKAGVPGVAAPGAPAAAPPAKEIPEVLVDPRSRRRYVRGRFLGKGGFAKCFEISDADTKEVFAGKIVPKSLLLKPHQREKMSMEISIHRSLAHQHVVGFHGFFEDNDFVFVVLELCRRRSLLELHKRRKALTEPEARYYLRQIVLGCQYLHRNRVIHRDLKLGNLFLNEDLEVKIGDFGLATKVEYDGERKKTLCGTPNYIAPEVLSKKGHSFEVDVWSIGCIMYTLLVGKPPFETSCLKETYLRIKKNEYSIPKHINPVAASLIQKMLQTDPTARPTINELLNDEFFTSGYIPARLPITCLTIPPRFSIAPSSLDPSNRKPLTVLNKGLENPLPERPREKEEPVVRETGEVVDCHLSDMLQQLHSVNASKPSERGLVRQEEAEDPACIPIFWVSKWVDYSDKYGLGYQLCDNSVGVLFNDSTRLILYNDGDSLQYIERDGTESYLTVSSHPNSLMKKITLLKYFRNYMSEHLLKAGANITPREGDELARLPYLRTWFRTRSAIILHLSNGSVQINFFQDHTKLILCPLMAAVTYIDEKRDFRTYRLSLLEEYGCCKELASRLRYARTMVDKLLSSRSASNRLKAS
UniProt Q13131: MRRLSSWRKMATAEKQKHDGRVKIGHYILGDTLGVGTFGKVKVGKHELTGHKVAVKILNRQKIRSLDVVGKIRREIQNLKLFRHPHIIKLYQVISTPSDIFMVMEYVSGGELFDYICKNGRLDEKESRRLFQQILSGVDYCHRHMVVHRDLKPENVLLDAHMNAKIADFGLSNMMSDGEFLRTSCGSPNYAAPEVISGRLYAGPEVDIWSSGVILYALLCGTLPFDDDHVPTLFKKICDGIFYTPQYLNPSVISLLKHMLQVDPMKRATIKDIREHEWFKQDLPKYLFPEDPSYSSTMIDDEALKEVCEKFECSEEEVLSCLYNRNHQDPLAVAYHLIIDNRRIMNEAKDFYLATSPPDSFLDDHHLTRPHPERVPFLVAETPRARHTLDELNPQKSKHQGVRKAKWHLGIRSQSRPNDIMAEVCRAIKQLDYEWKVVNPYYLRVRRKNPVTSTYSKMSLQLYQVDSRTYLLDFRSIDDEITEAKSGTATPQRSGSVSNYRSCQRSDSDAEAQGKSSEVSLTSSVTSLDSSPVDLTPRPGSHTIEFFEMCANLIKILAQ
UniProt Q05397, whole entry, looked up: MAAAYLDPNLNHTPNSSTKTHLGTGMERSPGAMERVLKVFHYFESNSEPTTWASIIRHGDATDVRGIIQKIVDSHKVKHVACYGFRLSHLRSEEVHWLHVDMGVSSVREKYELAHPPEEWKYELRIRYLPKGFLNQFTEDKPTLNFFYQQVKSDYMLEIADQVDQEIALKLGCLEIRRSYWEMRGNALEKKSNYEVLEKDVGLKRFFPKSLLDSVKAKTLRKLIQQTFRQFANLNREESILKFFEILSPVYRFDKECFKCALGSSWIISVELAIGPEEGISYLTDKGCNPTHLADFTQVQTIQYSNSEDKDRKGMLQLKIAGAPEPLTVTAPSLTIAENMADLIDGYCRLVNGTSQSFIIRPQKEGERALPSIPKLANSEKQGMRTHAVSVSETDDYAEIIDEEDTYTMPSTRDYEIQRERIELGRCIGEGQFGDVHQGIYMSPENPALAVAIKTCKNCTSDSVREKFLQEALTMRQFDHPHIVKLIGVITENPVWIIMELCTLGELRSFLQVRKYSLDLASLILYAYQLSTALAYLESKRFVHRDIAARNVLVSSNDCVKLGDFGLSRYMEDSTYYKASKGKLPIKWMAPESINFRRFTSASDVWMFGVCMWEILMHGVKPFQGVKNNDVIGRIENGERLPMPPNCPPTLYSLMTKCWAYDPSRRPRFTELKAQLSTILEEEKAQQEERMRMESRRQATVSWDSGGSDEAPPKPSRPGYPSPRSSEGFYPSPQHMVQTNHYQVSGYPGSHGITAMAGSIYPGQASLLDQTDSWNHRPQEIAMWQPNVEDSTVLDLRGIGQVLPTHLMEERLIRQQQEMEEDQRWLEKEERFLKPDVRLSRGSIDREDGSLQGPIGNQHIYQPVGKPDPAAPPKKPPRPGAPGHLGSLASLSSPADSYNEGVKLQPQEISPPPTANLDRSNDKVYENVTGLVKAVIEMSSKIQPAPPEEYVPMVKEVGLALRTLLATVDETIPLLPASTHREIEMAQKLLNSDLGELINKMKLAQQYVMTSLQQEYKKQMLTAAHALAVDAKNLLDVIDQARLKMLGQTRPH

Key:
Assay in all cases: kinase-Nluc reporter destabilization hit call (1 = scored as downregulated) (binary); higher = compound decreases kinase abundance
Details in all cases: K562; 2-18 h
PDPK1 = PDPK1 (UniProt O15530)
PIK4CA = PIK4CA (UniProt P42356)
PIK4CB = PIK4CB (UniProt Q9UBF8)
PLK1 = PLK1 (UniProt P53350)
PRKAA1 = PRKAA1 (UniProt Q13131)
PRKCA = PRKCA (UniProt P17252)
PTK2 = PTK2 (UniProt Q05397)
PTK2B = PTK2B (UniProt Q14289)
RAF1 = RAF1 (UniProt P04049)
[1] = target: RAF1_S257L (clone: RAF1_mut) (UniProt P04049)

Measured: kinase-Nluc reporter destabilization hit call

CN(C)C(=O)c1cc2cnc(Nc3ccc(N4CCN(CCCCNC(=O)COc5cccc6c5C(=O)N(C5CCC(=O)NC5=O)C6=O)CC4)cn3)nc2n1C1CCCC1 (stereo not drawn) (10 µM)
inactive: PDPK1 = 0 | PIK4CA 0 | PIK4CB 0 | PLK1 = 0 | PRKAA1 = 0 | PRKCA 0 | PTK2 = 0 | PTK2B 0 | RAF1 = 0 | [1] 0

CCOC(=O)c1c(Nc2ccccc2Cl)oc(/C=C2\C=Nc3ncccc32)c1O (10 µM)
inactive: PDPK1 = 0 | PIK4CA 0 | PIK4CB 0 | PLK1 = 0 | PRKAA1 = 0 | PRKCA 0 | PTK2 = 0 | PTK2B 0 | RAF1 = 0 | [1] 0

CN1CCN(c2ccc(-c3ccncc3-c3cc(F)c(O)c(F)c3)cc2)CC1 (10 µM)
inactive: PDPK1 = 0 | PIK4CA 0 | PIK4CB 0 | PLK1 = 0 | PRKAA1 = 0 | PRKCA 0 | PTK2 = 0 | PTK2B 0 | RAF1 = 0 | [1] 0

C[C@@H](NC(=O)c1ncnc(N)c1Cl)c1ncc(C(=O)Nc2cc(C(F)(F)F)c(Cl)cn2)s1 (2.5 µM)
inactive: PDPK1 = 0 | PIK4CA 0 | PIK4CB 0 | PLK1 = 0 | PRKAA1 = 0 | PRKCA 0 | PTK2 = 0 | PTK2B 0

C[C@@H]1CN(Cc2ccc(F)cc2)[C@@H](C)CN1C(=O)c1cc2c(C(=O)C(=O)N(C)C)cn(C)c2cc1Cl [Talmapimod] (10 µM)
inactive: PDPK1 = 0 | PIK4CA 0 | PIK4CB 0 | PLK1 = 0 | PRKAA1 = 0 | PRKCA 0 | PTK2 = 0 | PTK2B 0 | RAF1 = 0 | [1] 0

O=c1cc(N2CCOCC2)oc2c(-c3cccc4c3sc3ccccc34)cccc12 (10 µM)
inactive: PDPK1 = 0 | PIK4CA 0 | PIK4CB 0 | PLK1 = 0 | PRKAA1 = 0 | PRKCA 0 | PTK2 = 0 | PTK2B 0 | RAF1 = 0 | [1] 0

Cc1cc2c(F)c(Oc3ncnn4cc(OC[C@@H](C)OC(=O)[C@H](C)N)c(C)c34)ccc2[nH]1 [Brivanib (alaninate)] (10 µM)
inactive: PDPK1 = 0 | PIK4CA 0 | PIK4CB 0 | PLK1 = 0 | PRKAA1 = 0 | PRKCA 0 | PTK2 = 0 | PTK2B 0 | RAF1 = 0 | [1] 0

O=C(Nc1ccc(F)cc1F)C(NC(=S)Nc1cc(C(F)(F)F)cc(C(F)(F)F)c1)c1ccccc1 (racemic) (2.5 µM)
inactive: PDPK1 = 0 | PIK4CA 0 | PIK4CB 0 | PLK1 = 0 | PRKAA1 = 0 | PRKCA 0 | PTK2 = 0 | PTK2B 0 | RAF1 = 0 | [1] 0

CN1CCN(Cc2ccc(-c3cnc4[nH]cc(-c5ccc6[nH]ccc6c5)c4c3)cc2)CC1 (2.5 µM)
inactive: PDPK1 = 0 | PIK4CA 0 | PIK4CB 0 | PLK1 = 0 | PRKAA1 = 0 | PRKCA 0 | PTK2 = 0 | PTK2B 0 | RAF1 = 0 | [1] 0

CO[C@@H]1[C@H](N(C)C(=O)c2ccccc2)C[C@H]2O[C@]1(C)n1c3ccccc3c3c4c(c5c6ccccc6n2c5c31)C(=O)NC4 [Midostaurin] (2.5 µM)
inactive: PDPK1 = 0 | PIK4CA 0 | PIK4CB 0 | PLK1 = 0 | PRKAA1 = 0 | PRKCA 0 | PTK2 = 0 | PTK2B 0 | RAF1 = 0 | [1] 0

Cc1ncsc1-c1ccc(CNC(=O)[C@@H]2C[C@@H](O)CN2C(=O)[C@@H](NC(=O)COCCOc2ccc(-c3cc(Nc4ccc(OC(F)(F)F)cc4)ncn3)cc2)C(C)(C)C)cc1 (2.5 µM)
inactive: PDPK1 = 0 | PIK4CA 0 | PIK4CB 0 | PLK1 = 0 | PRKAA1 = 0 | PRKCA 0 | PTK2 = 0 | PTK2B 0 | RAF1 = 0 | [1] 0

O=C(COc1ccc(Cl)cc1)NC1CCC(NC(=O)COc2ccc(Cl)cc2)CC1 (stereo not drawn) [ISRIB (trans-isomer)] (10 µM)
inactive: PDPK1 = 0 | PIK4CA 0 | PIK4CB 0 | PLK1 = 0 | PRKAA1 = 0 | PRKCA 0 | PTK2 = 0 | PTK2B 0 | RAF1 = 0 | [1] 0

Cc1cnc(Nc2ccc(F)cc2Cl)nc1-c1c[nH]c(C(=O)N[C@H](CO)c2cccc(Cl)c2)c1 (10 µM)
inactive: PDPK1 = 0 | PIK4CA 0 | PIK4CB 0 | PLK1 = 0 | PRKAA1 = 0 | PRKCA 0 | PTK2 = 0 | PTK2B 0 | RAF1 = 0 | [1] 0

Fc1ccc(-c2nc3n(c2-c2ccncc2)CCS3)cc1 (10 µM)
inactive: PDPK1 = 0 | PIK4CA 0 | PIK4CB 0 | PLK1 = 0 | PRKAA1 = 0 | PRKCA 0 | PTK2 = 0 | PTK2B 0 | RAF1 = 0 | [1] 0

COc1cc2nccc(Nc3cccc(Oc4ccccc4)c3)c2cc1OC (2.5 µM)
inactive: PDPK1 = 0 | PIK4CA 0 | PIK4CB 0 | PLK1 = 0 | PRKAA1 = 0 | PRKCA 0 | PTK2 = 0 | PTK2B 0 | RAF1 = 0 | [1] 0

CN1C(=O)N[C@@H](Cc2c[nH]c3c(Cl)cccc23)C1=O [Necrostatin 2 (S enantiomer)] (10 µM)
inactive: PDPK1 = 0 | PIK4CA 0 | PIK4CB 0 | PLK1 = 0 | PRKAA1 = 0 | PRKCA 0 | PTK2 = 0 | PTK2B 0 | RAF1 = 0 | [1] 0

CC1(C)C=Cc2c(ccc(C(=O)/C=C/c3ccc(O)cc3)c2O)O1 [4-Hydroxylonchocarpin] (10 µM)
inactive: PDPK1 = 0 | PIK4CA 0 | PIK4CB 0 | PLK1 = 0 | PRKAA1 = 0 | PRKCA 0 | PTK2 = 0 | PTK2B 0 | RAF1 = 0 | [1] 0

CCOC(=O)c1c(N2CCc3ccc(OC)cc3C2)oc(C=C2C=Nc3ncccc32)c1O (10 µM)
inactive: PDPK1 = 0 | PIK4CA 0 | PIK4CB 0 | PLK1 = 0 | PRKAA1 = 0 | PRKCA 0 | PTK2 = 0 | PTK2B 0 | RAF1 = 0 | [1] 0

C=CC(=O)Nc1cccc(Oc2nc(Nc3ccc(N4CCN(C)CC4)cc3OC)ncc2Cl)c1 (10 µM)
inactive: PDPK1 = 0 | PIK4CA 0 | PIK4CB 0 | PLK1 = 0 | PRKAA1 = 0 | PRKCA 0 | PTK2 = 0 | PTK2B 0 | RAF1 = 0 | [1] 0

Quoted at random: two records from the list
C=CC(=O)Nc1cccc(Oc2nc(Nc3ccc(N4CCN(C)CC4)cc3OC)ncc2Cl)c1 (10 µM)
inactive: PDPK1 = 0 | PIK4CA 0 | PIK4CB 0 | PLK1 = 0 | PRKAA1 = 0 | PRKCA 0 | PTK2 = 0 | PTK2B 0 | RAF1 = 0 | [1] 0

CC1(C)C=Cc2c(ccc(C(=O)/C=C/c3ccc(O)cc3)c2O)O1 [4-Hydroxylonchocarpin] (10 µM)
inactive: PDPK1 = 0 | PIK4CA 0 | PIK4CB 0 | PLK1 = 0 | PRKAA1 = 0 | PRKCA 0 | PTK2 = 0 | PTK2B 0 | RAF1 = 0 | [1] 0

(cont.)

COc1cc2nc(NC3CC3)nc(NC3CCN(C(C)C)CC3)c2cc1OC (10 µM)
inactive: PDPK1 = 0 | PIK4CA 0 | PIK4CB 0 | PLK1 = 0 | PRKAA1 = 0 | PRKCA 0 | PTK2 = 0 | PTK2B 0 | RAF1 = 0 | [1] 0

O=c1cc(-c2ccc(O[C@@H]3O[C@H](CO)[C@@H](O)[C@H](O)[C@H]3O)cc2)oc2cc(O)c([C@@H]3O[C@H](CO)[C@@H](O)[C@H](O)[C@H]3O[C@@H]3OC[C@H](O)[C@H](O)[C@H]3O)c(O)c12 [Vaccarin] (10 µM)
inactive: PDPK1 = 0 | PIK4CA 0 | PIK4CB 0 | PLK1 = 0 | PRKAA1 = 0 | PRKCA 0 | PTK2 = 0 | PTK2B 0 | RAF1 = 0 | [1] 0

CNc1cc2c(Nc3cccc(Br)c3)ncnc2cn1 (10 µM)
inactive: PDPK1 = 0 | PIK4CA 0 | PIK4CB 0 | PLK1 = 0 | PRKAA1 = 0 | PRKCA 0 | PTK2 = 0 | PTK2B 0 | RAF1 = 0 | [1] 0

N#Cc1cc(-c2ccnc(Nc3ccc(N4CCOCC4)cc3)n2)ccc1OC1CCOCC1 (10 µM)
inactive: PDPK1 = 0 | PIK4CA 0 | PIK4CB 0 | PLK1 = 0 | PRKAA1 = 0 | PRKCA 0 | PTK2 = 0 | PTK2B 0 | RAF1 = 0 | [1] 0

Cc1cccc(-c2nn3c(c2-c2ccnc4ccc(C(N)=O)cc24)CCC3)n1 [Galunisertib] (10 µM)
inactive: PDPK1 = 0 | PIK4CA 0 | PIK4CB 0 | PLK1 = 0 | PRKAA1 = 0 | PRKCA 0 | PTK2 = 0 | PTK2B 0 | RAF1 = 0 | [1] 0

CN1CCC(Nc2nc(Nc3ccc(Oc4ccccc4)cc3)c3c(=O)[nH]cc(Br)c3n2)CC1 (2.5 µM)
inactive: PDPK1 = 0 | PIK4CA 0 | PIK4CB 0 | PLK1 = 0 | PRKAA1 = 0 | PRKCA 0 | PTK2 = 0 | PTK2B 0 | RAF1 = 0 | [1] 0

Cc1cc(N2CCOCC2)ccc1Nc1nc(NC2CCCCC2)c2[nH]cnc2n1 (10 µM)
inactive: PDPK1 = 0 | PIK4CA 0 | PIK4CB 0 | PLK1 = 0 | PRKAA1 = 0 | PRKCA 0 | PTK2 = 0 | PTK2B 0 | RAF1 = 0 | [1] 0

COC(=O)N1CCN(C2CCC(Nc3nc(Nc4cnn(C)c4)nc4ccc(CC#N)nc34)CC2)CC1 (stereo not drawn) (10 µM)
inactive: PDPK1 = 0 | PIK4CA 0 | PIK4CB 0 | PLK1 = 0 | PRKAA1 = 0 | PRKCA 0 | PTK2 = 0 | PTK2B 0 | RAF1 = 0 | [1] 0

O=S(=O)(c1ccc(O)cc1O)N1Cc2cc(O)cc(O)c2C1 (10 µM)
inactive: PDPK1 = 0 | PIK4CA 0 | PIK4CB 0 | PLK1 = 0 | PRKAA1 = 0 | PRKCA 0 | PTK2 = 0 | PTK2B 0 | RAF1 = 0 | [1] 0

Cc1cncc2cccc(S(=O)(=O)N3CCCNC[C@@H]3C)c12 [H-1152 (dihydrochloride)] (10 µM)
inactive: PDPK1 = 0 | PIK4CA 0 | PIK4CB 0 | PLK1 = 0 | PRKAA1 = 0 | PRKCA 0 | PTK2 = 0 | PTK2B 0 | RAF1 = 0 | [1] 0
